Here are results for one molecule from PMC4161388.

Amino acid sequences for entries named in this document (tags omitted). Residues count along the entry.
UniProt Q10589, residues 1-161: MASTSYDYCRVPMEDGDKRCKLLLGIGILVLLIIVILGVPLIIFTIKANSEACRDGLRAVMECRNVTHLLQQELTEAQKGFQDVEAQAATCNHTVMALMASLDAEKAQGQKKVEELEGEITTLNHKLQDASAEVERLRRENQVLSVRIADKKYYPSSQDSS

These are yes or no findings as the source states them, for the method shown. In cells and extracts the contact can be indirect. Some entries that bind do so weakly or less than the wild type. Where a sequence is shown, tags or fusion partners need not be part of it.

The target in this test is human tetherin, wild type (human) (UniProt Q10589). Kind of test: co-IP; 293 cells cotransfected with N-terminally HA-tagged human RICH2 and tetherin; IP with anti-tetherin antibody; blots for HA and tetherin.

B1: N-terminally HA-tagged human RICH2 (protein, UniProt Q17R89 1-818)
chain: MKKQFNRMRQLANQTVGRAEKTEVLSEDLLQVEKRLELVKQVSHSTHKKLTACLQGQQGAEADKRSKKLPLTTLAQCLMEGSAILGDDTLLGKMLKLCGETEDKLAQELIHFELQVERDVIEPLFLLAEVEIPNIQKQRKHLAKLVLDMDSSRTRWQQTSKSSGLSSSLQPAGAKADALREEMEEAANRVEICRDQLSADMYSFVAKEIDYANYFQTLIEVQAEYHRKSLTLLQAVLPQIKAQQEAWVEKPSFGKPLEEHLTISGREIAFPIEACVTMLLECGMQEEGLFRVAPSASKLKKLKAALDCCVVDVQEYSADPHAIAGALKSYLRELPEPLMTFELYDEWIQASNVQEQDKKLQALWNACEKLPKANHNNIRYLIKFLSKLSEYQDVNKMTPSNMAIVLGPNLLWPQAEGNITEMMTTVSLQIVGIIEPIIQHADWFFPGEIEFNITGNYGSPVHVNHNANYSSMPSPDMDPADRRQPEQARRPLSVATDNMMLEFYKKDGLRKIQSMGVRVMDTNWVARRGSSAGRKVSCAPPSMQPPAPPAELAAPLPSPLPEQPLDSPAAPALSPSGLGLQPGPERTSTTKSKELSPGSAQKGSPGSSQGTACAGTQPGAQPGAQPGASPSPSQPPADQSPHTLRKVSKKLAPIPPKVPFGQPGAMADQSAGQPSPVSLSPTPPSTPSPYGLSYPQGYSLASGQLSPAAAPPLASPSVFTSTLSKSRPTPKPRQRPTLPPPQPPTVNLSASSPQSTEAPMLDGMSPGESMSTDLVHFDIPSIHIELGSTLRLSPLEHMRRHSVTDKRDSEEESESTAL
On to B1, for which the binding entry is reported as “binds”.
